Experimental data taken from publication PMC5722644.
These are yes or no findings as the source states them, for the method shown. Binding seen in cells or lysates may run through a third protein. These calls come from enrichment with a bait or labelling near it, and not all partners need be listed. Sequences can lack the tags named with a protein.

By UniProt entry, the sequences of proteins in these tests, tags left out. Where a name states a change or a piece, a line headed by the entry shows the natural chain unless it says otherwise. Residues count along the entry.
UniProt P0CX41: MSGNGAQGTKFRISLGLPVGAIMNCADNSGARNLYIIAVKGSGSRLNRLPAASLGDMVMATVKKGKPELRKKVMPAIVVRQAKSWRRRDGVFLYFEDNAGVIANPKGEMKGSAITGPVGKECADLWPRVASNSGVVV
UniProt P05756: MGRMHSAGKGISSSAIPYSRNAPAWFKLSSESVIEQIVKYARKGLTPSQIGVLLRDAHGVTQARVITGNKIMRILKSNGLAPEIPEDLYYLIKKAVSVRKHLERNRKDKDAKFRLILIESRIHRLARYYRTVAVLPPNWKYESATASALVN
UniProt Q01939: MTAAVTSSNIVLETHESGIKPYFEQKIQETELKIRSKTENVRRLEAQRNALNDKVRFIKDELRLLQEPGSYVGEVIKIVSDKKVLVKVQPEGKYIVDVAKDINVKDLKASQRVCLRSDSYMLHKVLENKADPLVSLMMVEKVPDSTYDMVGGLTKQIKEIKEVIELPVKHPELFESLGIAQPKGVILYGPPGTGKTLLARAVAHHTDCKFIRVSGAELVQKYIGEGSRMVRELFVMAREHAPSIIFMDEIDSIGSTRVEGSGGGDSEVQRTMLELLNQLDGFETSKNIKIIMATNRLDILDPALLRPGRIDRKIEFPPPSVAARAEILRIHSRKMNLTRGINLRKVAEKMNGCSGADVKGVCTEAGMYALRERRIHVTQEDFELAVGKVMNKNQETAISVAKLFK
UniProt Q3E792: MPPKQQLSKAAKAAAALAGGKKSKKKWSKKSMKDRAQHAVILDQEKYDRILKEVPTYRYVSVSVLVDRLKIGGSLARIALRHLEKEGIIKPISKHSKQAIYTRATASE
UniProt P0CS90, residues 24-654: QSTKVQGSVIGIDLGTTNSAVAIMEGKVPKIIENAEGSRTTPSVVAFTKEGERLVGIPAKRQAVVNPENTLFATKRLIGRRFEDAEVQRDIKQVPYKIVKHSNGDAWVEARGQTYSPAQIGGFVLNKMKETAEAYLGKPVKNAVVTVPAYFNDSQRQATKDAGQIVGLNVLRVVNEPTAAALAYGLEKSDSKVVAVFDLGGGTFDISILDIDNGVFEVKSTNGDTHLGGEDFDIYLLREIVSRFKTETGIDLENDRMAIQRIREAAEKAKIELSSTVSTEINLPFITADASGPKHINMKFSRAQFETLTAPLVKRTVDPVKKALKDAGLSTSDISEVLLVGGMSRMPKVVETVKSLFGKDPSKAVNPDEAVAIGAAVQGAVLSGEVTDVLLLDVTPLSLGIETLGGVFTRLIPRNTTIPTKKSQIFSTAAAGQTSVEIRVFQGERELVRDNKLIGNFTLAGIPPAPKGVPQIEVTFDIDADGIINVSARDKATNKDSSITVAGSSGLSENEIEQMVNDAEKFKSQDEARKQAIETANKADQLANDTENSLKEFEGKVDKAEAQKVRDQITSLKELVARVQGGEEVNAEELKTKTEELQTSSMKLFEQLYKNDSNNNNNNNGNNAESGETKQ
UniProt P05743: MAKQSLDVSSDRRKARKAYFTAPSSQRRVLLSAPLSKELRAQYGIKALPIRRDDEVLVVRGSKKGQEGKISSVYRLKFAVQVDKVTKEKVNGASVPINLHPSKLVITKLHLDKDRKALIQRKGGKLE
UniProt P02994: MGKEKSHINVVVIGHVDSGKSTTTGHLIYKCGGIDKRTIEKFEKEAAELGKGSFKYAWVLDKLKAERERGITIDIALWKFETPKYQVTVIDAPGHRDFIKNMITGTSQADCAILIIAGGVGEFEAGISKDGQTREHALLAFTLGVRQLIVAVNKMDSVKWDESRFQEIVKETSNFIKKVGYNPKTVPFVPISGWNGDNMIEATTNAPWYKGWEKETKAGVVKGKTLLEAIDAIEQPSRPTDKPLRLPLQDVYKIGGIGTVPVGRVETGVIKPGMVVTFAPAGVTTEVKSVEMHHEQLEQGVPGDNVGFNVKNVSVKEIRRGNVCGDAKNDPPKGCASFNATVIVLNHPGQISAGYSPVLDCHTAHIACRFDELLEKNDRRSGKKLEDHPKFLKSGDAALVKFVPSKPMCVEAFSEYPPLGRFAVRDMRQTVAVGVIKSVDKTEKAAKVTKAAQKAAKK
UniProt P10659: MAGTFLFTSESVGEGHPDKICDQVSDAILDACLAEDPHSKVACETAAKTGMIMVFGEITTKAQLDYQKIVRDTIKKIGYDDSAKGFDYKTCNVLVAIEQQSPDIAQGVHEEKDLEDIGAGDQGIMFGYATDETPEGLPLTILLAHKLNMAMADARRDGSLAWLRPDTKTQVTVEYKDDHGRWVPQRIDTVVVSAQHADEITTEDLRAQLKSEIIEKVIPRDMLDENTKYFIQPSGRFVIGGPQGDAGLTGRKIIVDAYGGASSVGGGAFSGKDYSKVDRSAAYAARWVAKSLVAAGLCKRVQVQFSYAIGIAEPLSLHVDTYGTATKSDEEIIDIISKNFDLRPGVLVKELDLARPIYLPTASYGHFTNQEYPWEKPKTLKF
UniProt P36105: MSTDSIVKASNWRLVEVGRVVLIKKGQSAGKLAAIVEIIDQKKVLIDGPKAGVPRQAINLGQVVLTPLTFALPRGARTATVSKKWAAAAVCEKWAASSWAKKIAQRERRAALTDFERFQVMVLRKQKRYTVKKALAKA
UniProt P07280: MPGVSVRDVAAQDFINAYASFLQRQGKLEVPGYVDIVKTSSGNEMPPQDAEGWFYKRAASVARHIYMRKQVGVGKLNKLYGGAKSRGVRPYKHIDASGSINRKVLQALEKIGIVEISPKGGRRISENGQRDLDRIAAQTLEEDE
UniProt P02407: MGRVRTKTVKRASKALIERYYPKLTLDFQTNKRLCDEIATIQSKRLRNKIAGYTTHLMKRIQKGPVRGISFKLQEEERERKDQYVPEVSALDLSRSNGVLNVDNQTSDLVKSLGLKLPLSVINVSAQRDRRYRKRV
UniProt P14126: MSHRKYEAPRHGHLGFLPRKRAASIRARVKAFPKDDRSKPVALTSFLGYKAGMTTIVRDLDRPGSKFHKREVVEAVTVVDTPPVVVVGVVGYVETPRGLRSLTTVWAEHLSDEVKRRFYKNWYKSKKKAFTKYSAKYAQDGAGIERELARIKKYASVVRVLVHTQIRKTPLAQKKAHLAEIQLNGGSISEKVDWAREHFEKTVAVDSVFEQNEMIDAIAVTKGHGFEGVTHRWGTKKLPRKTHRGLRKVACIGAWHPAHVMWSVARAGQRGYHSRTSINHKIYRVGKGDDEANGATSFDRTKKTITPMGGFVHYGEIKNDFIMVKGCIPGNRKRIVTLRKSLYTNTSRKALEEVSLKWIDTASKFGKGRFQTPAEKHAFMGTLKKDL
UniProt P05744: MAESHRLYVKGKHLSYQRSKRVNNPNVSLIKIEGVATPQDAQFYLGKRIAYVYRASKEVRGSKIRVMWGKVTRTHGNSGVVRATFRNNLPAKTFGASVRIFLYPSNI

B1: Ctr9 (protein, UniProt P89105 1-1077)
chain: MTNAMKVEGYPSMEWPTSLDIPLKASEELVGIDLETDLPDDPTDLKTLLVEENSEKEHWLTIALAYCNHGKTNEGIKLIEMALDVFQNSERASLHTFLTWAHLNLAKGQSLSVETKEHELTQAELNLKDAIGFDPTWIGNMLATVELYYQRGHYDKALETSDLFVKSIHAEDHRSGRQSKPNCLFLLLRAKLLYQKKNYMASLKIFQELLVINPVLQPDPRIGIGLCFWQLKDSKMAIKSWQRALQLNPKNTSASILVLLGEFRESFTNSTNDKTFKEAFTKALSDLNNIFSENQHNPVLLTLLQTYYYFKGDYQTVLDIYHHRILKMSPMIAKIVLSESSFWCGRAHYALGDYRKSFIMFQESLKKNEDNLLAKLGLGQTQIKNNLLEESIITFENLYKTNESLQELNYILGMLYAGKAFDAKTAKNTSAKEQSNLNEKALKYLERYLKLTLATKNQLVISRAYLVISQLYELQNQYKTSLDYLSKALEEMEFIKKEIPLEVLNNLACYHFINGDFIKADDLFKQAKAKVSDKDESVNITLEYNIARTNEKNDCEKSESIYSQVTSLHPAYIAARIRNLYLKFAQSKIEDSDMSTEMNKLLDLNKSDLEIRSFYGWYLKNSKERKNNEKSTTHNKETLVKYNSHDAYALISLANLYVTIARDGKKSRNPKEQEKSKHSYLKAIQLYQKVLQVDPFNIFAAQGLAIIFAESKRLGPALEILRKVRDSLDNEDVQLNLAHCYLEMREYGKAIENYELVLKKFDNEKTRPHILNLLGRAWYARAIKERSVNFYQKALENAKTALDLFVKESSKSKFIHSVKFNIALLHFQIAETLRRSNPKFRTVQQIKDSLEGLKEGLELFRELNDLKEFNMIPKEELEQRIQLGETTMKSALERSLNEQEEFEKEQSAKIDEARKILEENELKEQGWMKQEEEARRLKLEKQAEEYRKLQDEAQKLIQEREAMAISEHNVKDDSDLSDKDNEYDEEKPRQKRKRSTKTKNSGESKRRKAAKKTLSDSDEDDDDVVKKPSHNKGKKSQLSNEFIEDSDEEEAQMSGSEQNKNDDNDENNDNDDNDGLF
B2: acetolactate synthase Ilv2 (enzyme, UniProt P07342 91-687)
chain: GLTGGQIFNEMMSRQNVDTVFGYPGGAILPVYDAIHNSDKFNFVLPKHEQGAGHMAEGYARASGKPGVVLVTSGPGATNVVTPMADAFADGIPMVVFTGQVPTSAIGTDAFQEADVVGISRSCTKWNVMVKSVEELPLRINEAFEIATSGRPGPVLVDLPKDVTAAILRNPIPTKTTLPSNALNQLTSRAQDEFVMQSINKAADLINLAKKPVLYVGAGILNHADGPRLLKELSDRAQIPVTTTLQGLGSFDQEDPKSLDMLGMHGCATANLAVQNADLIIAVGARFDDRVTGNISKFAPEARRAAAEGRGGIIHFEVSPKNINKVVQTQIAVEGDATTNLGKMMSKIFPVKERSEWFAQINKWKKEYPYAYMEETPGSKIKPQTVIKKLSKVANDTGRHVIVTTGVGQHQMWAAQHWTWRNPHTFITSGGLGTMGYGLPAAIGAQVAKPESLVIDIDGDASFNMTLTELSSAVQAGTPVKILILNNEEQGMVTQWQSLFYEHRYSHTHQLNPDFIKLAEAMGLKGLRVKKQEELDAKLKEFVSTKGPVLLEVEVDKKVPVLPMVAGGSGLDEFINFDPEVERQQTELRHKRTGGKH
B3: Bio3 (enzyme, UniProt P50277 1-480)
chain: MSQEISYTPDVAELLDFDKKHIWHPYTSLSSPLNVYPVKSAHGCKLVLDTDSPVDVEVIDAMSSWWCVIHGYNNPELNEALTKQMLKFSHVLLGGFTHKGAVNLVQKLLKVIDEPSLQYCFLADSGSVAVEVALKMALQSNMSGEATKNRTKFLTIKNGYHGDTFGAMSVCDPENSMHHIYNDRLSENIFAQAPSIVDGLPTSQNGFEDHWNAEEVTDLKKQFELHSDKICAVILEPILQGAGGLRPYHPQFLIEVQKLCNQYDVLFIMDEIATGFGRTGEIFAFKHCQKYQDQHGISPSDQIKVVPDILCVGKGLTSGYMTMSAVVVNDKVASRISSPNSPTGGCFMHGPTFMGNALACSVAEKSMDILLRGEWRKQVSAIENQIYRELYQYIKNPDNGLIGTVVKRVSVIGAVGIVELYKKTDPEWFQKKFISKGVHIRPFNCLCYIMPPYVITTEELTKVNQVLIEVLHEWKSHINQ
B4: Cdc73 (protein, UniProt Q06697 1-393)
chain: MANSLDRLREHLKNGDKLVLKNNEGQSTDDITKATMVETLSSDGSTQDSFPLNEETEIEIDGSLVQLRIIVHCWMNKDSSAADYLADCQNKQLTNVSFLQRTDLINWLSGNTESSQYLKAPGQKGETSDKVDIENKTLAGELSTVKSTTSASLENDSEVSDPVVVETMKHERILVDHNSALRGAKPINFGYLIKDAELKLVQSIKGSLRGSKLPPGHKGAHGRISKTNGSSGGPRKDPIILIPSAASSILTVANIKQFLLESKYVNPRNLPSVPNGLVNIEKNFERISRPIRFIIVDNTRMFTKPEYWDRVVAIFTTGHTWQFNNYQWNSPQELFQRCKGYYFHFAGDSVPQHVQQWNVEKVELDKNKRFKDVEVVRYFWHSLEKELISRGYR
B5: Tef4 (protein, UniProt P36008 1-412)
chain: MSQGTLYINRSPRNYASEALISYFKLDVKIVDLEQSSEFASLFPLKQAPAFLGPKGLKLTEALAIQFYLANQVADEKERARLLGSDVIEKSQILRWASLANSDVMSNIARPFLSFKGLIPYNKKDVDACFVKIDNLAAVFDARLRDYTFVATENISLGDLHAAGSWAFGLATILGPEWRAKHPHLMRWFNTVAASPIVKTPFAEVKLAEKALTYTPPKKQKAEKPKAEKSKAEKKKDEAKPADDAAPAKKPKHPLEALGKSTFVLDDWKRKYSNDDTRPVALPWFWEHYNPEEYSIWKVGYKYNDELTLTFMSNNLVGGFFNRLSASTKYMFGCLVVYGENNNNGIVGAVMVRGQDFAPAFDVAPDWESYEYTKLDPTKEEDKEFVNNMWAWDKPVVVNGEDKEIVDGKVLK
B6: mitochondrial external NADH dehydrogenase Nde1 (enzyme, UniProt P40215 42-560)
chain: EDKKVILQKVAPTTGVVAKQSFFKRTGKFTLKALLYSALAGTAYVSYSLYREANPSTQVPQSDTFPNGSKRKTLVILGSGWGSVSLLKNLDTTLYNVVVVSPRNYFLFTPLLPSTPVGTIELKSIVEPVRTIARRSHGEVHYYEAEAYDVDPENKTIKVKSSAKNNDYDLDLKYDYLVVGVGAQPNTFGTPGVYEYSSFLKEISDAQEIRLKIMSSIEKAASLSPKDPERARLLSFVVVGGGPTGVEFAAELRDYVDQDLRKWMPELSKEIKVTLVEALPNILNMFDKYLVDYAQDLFKEEKIDLRLKTMVKKVDATTITAKTGDGDIENIPYGVLVWATGNAPREVSKNLMTKLEEQDSRRGLLIDNKLQLLGAKGSIFAIGDCTFHPGLFPTAQVAHQEGEYLAQYFKKAYKIDQLNWKMTHAKDDSEVARLKNQIVKTQSQIEDFKYNHKGALAYIGSDKAIADLAVGEAKYRLAGSFTFLFWKSAYLAMCLSFRNRVLVAMDWAKVYFLGRDSSI

Target: T1, FLAG-tagged Drosophila spartin (Drosophila) (UniProt Q9VN45)
T1 sequence: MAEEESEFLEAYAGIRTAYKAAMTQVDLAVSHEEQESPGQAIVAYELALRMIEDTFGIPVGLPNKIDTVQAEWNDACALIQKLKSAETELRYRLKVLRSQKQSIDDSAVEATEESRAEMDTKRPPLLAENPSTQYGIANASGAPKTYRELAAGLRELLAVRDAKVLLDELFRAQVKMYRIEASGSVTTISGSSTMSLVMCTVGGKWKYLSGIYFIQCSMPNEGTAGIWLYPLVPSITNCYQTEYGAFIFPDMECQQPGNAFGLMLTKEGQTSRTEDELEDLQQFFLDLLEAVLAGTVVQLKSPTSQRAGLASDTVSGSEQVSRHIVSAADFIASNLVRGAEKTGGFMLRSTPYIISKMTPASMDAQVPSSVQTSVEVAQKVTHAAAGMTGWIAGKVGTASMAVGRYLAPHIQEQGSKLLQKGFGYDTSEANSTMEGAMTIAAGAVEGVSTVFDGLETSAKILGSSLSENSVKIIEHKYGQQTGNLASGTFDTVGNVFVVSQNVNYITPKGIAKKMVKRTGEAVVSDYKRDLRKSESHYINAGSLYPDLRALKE
Assay: affinity purification with mass spectrometry; whole-cell extracts of yeast expressing FLAG-tagged Drosophila spartin (vector control beside it) on anti-FLAG M2 agarose beads; eluates on Tricine-SDS-PAGE, lanes cut into slices, in-gel trypsin digest, LC-MS/MS

binding, binds:
Rpl23 (from UniProt P0CX41 1-137)
Rps13 (from UniProt P05756 1-151)
Rpt6 (from UniProt Q01939 1-405)
Rps25 (from UniProt Q3E792)
Ssc1 (from UniProt P0CS90 24-654)
Rpl26 (from UniProt P05743)
Tef2 (from UniProt P02994 1-458)
Rtf1 (from UniProt P53064 1-558)
Hsp82/Hsc82 (S. cerevisiae (endogenous in BY4741))
Sam1 (from UniProt P10659 1-382) (enzyme)
Rpl14 (from UniProt P36105)
Rps19 (from UniProt P07280)
Rps17 (from UniProt P02407)
Rpl3 (from UniProt P14126 1-387)
Rpl33 (from UniProt P05744)
B1
B2
B3
B4
B5
B6
